Inconclusive means that the source gave no clear call. Such entries were picked first, then a sample of the others. A potency beside an inconclusive call is a rough fit, not a confirmed value. Calls of active or inactive are those of the source. Calls come from the whole dose curve; as a rule, active = well fitted cell-killing curve with a large enough effect; inconclusive = small, poorly fitted or top-dose-only effect, or effect the other way; inactive = no such curve, though single readings can be large or run the other way.
Experiment: Cell viability assay in S16 Pmp22-HiBiT cells
Conditions: S16 Schwann Pmp22-HiBiT viability, CellTiter-Glo, 24 h; series mostly up to 27.9 µM
Source text: Assay Provider: Jim Inglese Ph.D. National Center for Advancing Translational Science, National Institutes of Health, Rockville, MD CMT is a heterogeneous group of neurological disorders that affect approximately 1 in 2,500 people. In particular, the most common form of CMT, CMT1A is genetically linked to the duplication of the PMP22 gene which leads to Schwann cell overexpression, thus manifesting itself as a typical case of dose-sensitive diseases. To identify small molecule compounds that can mediate the expression of PMP22 we developed a phenotypic assay screening strategy by utilizing genome editing techniques to construct Schwann cell lines containing novel reporter technology to monitor the transcriptional or translational regulation of PMP22. For high sensitivity we use a bioluminescent reporter system embedded in the 3' UTR of the PMP22 gene (S16(c9) Pmp22-F2sN) to identify compounds that inhibit gene expression. […] We can further discriminate the effect of all transcriptionally active molecules on PMP22 translation or stability with an assay that incorporates a short NLuc peptide (HiBiT) at the C-terminus of expressed PMP22 (S16(f8) PMP22-HiBiT) allowing alpha complementation and luminescence detection of membrane-associated PMP22 protein. These assays were screened against the NCATS Sytravon Library Collection. Miniaturization of these assays to 1536-well plate format for quantitative high throughput screening (qHTS) yielded rich data sets immediately from the qHTS assay (S16(c9) Pmp22-F2sN), when compared with data from a cell viability assay (Cell TiterGlo) to identify compounds that decreased the output signals through cellular toxicity to streamline the selection process of actives for subsequent characterization using the HiBiT assay (S16(f8) PMP22-HiBiT).
Cell viability assay in S16 Pmp22-HiBiT cells PROTOCOL TABLE (format as described by Inglese J, Shamu CE and Guy RK. 2007) SEQUENCE No. (e.g., 1, 2, 3, etc.); PARAMETER (e.g., Cells, Incubation, Reagent, etc.); VALUE and DESCRIPTION. 1. Cells. Add 500-1,000 cells in 4 uL in growth media (DMEM High Glucose, No Phenol Red media + 10% heat-inactivated FBS + 1% Pen/Strep supplemented media) per well into Greiner 1536-well white/solid bottom high base, TC-treated plates. 2. Compounds. Library compounds and controls added at 23nL per well, transferred by Pin Tool. 3. Incubation. Incubate plates at 37C, 5% CO2, 95% RH for 24 h. 4. Reagent. Add 3uL CellTiter-Glo per well of Greiner 1536-well plates. 5. Incubation. Incubate plates at room temperature for 15 min., protect from light. 6. Detector. Luminescence measured using CCD-based camera (Viewlux). NOTES (numbers refer to Sequence numbers above; values are from representative experiments) 6. Luminescence Read: Clear filter; Exposure = 1 sec, Gain = High, Speed = Slow, Binning = 2X REFERENCES: 1. Inglese J, Shamu CE and Guy RK, Reporting data from high throughput screening of small molecule libraries, Nature Chemical Biology, 2007, 3(8): 438-441. doi.org/10.1038/nchembio0807-438 2. Yasgar A, Shinn P, Jadhav A, Auld DS, Michael S, Zheng W, Austin CP, Inglese J and Simeonov A, Compound Management for Quantitative High-Throughput Screening. J. Assoc. Lab. Auto., 2008, 13: 79-89. doi: 10.1016/j.jala.2007.12.004

SMILES | Potency
CCN(CC)CCNC(=O)c1cc(-c2ccc(Br)s2)nc2ccccc12 | inconclusive: 18.2 µM [cytotoxic, partial curve, poor fit]
CCCCS(=O)(=O)c1nc(-c2ccc(Br)cc2)cc(-c2ccccc2)c1C#N | inconclusive: 20.4 µM [rising, single point]
Cc1ccccc1S(=O)(=O)Cc1ccc(C(=O)N2CCN(c3cccc(Cl)c3)CC2)o1 | inconclusive: 11.5 µM [rising, partial curve]
CCc1ccccc1Nc1nn2c(=O)c3ccc(C(=O)Nc4cc(C)cc(C)c4)cc3nc2s1 | active: 6.45 µM
CC(=O)N1CCc2c(sc(NC(=O)CSc3ccccc3)c2-c2nc3ccccc3s2)C1 | inconclusive: 16.2 µM [rising, partial curve]
